# The supplement of paper PMC6411743
# Chains of the proteins cited; added tags and fusions are not shown. Lines headed by an entry give the natural chain unless they say otherwise; changes in a name come on top.
# UniProt Q05BQ5, whole entry: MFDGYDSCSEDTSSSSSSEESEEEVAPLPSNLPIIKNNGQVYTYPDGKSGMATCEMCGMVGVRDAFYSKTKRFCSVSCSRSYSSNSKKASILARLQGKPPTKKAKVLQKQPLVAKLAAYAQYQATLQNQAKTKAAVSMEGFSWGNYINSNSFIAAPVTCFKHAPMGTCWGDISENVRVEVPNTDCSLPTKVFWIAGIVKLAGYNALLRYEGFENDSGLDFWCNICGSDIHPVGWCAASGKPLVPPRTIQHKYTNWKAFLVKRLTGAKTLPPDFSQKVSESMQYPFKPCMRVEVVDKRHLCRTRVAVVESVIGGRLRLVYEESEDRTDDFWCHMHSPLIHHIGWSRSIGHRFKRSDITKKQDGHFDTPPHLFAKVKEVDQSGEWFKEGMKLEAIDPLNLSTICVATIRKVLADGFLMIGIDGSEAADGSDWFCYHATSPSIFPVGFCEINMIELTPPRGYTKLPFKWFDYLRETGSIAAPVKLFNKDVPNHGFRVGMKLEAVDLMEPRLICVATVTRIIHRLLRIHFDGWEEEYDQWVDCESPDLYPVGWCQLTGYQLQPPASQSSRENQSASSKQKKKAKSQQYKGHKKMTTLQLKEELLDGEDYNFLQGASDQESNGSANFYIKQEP
# UniProt Q13433: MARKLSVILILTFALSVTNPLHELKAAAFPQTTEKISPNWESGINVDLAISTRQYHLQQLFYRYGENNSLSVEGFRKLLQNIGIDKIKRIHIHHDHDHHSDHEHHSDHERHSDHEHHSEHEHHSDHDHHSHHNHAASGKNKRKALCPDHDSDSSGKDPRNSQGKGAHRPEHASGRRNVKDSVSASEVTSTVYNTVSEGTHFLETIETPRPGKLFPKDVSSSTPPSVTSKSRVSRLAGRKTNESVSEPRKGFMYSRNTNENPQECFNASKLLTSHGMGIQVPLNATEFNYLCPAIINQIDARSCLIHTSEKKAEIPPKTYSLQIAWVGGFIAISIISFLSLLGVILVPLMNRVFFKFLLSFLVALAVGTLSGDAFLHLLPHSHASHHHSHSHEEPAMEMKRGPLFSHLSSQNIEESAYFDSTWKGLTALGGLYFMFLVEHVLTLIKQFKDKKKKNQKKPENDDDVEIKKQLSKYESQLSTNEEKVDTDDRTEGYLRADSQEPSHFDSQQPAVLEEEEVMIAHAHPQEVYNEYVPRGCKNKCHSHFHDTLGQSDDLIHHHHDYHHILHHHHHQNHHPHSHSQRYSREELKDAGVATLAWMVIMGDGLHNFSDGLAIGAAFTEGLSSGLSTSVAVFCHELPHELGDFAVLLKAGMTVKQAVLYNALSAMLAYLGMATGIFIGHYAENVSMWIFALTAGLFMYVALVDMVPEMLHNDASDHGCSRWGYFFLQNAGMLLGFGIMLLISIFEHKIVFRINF
# UniProt Q13216, whole entry: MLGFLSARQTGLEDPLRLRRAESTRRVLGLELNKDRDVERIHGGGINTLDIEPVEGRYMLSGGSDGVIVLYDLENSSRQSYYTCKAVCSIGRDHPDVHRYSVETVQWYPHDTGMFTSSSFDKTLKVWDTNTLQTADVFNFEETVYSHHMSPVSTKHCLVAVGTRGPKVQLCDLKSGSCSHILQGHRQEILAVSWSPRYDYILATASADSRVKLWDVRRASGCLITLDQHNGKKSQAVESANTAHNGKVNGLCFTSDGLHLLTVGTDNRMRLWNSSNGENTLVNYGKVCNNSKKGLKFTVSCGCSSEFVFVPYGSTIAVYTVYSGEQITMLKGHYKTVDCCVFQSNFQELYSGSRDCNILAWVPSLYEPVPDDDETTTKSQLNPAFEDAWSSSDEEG
# UniProt Q12769: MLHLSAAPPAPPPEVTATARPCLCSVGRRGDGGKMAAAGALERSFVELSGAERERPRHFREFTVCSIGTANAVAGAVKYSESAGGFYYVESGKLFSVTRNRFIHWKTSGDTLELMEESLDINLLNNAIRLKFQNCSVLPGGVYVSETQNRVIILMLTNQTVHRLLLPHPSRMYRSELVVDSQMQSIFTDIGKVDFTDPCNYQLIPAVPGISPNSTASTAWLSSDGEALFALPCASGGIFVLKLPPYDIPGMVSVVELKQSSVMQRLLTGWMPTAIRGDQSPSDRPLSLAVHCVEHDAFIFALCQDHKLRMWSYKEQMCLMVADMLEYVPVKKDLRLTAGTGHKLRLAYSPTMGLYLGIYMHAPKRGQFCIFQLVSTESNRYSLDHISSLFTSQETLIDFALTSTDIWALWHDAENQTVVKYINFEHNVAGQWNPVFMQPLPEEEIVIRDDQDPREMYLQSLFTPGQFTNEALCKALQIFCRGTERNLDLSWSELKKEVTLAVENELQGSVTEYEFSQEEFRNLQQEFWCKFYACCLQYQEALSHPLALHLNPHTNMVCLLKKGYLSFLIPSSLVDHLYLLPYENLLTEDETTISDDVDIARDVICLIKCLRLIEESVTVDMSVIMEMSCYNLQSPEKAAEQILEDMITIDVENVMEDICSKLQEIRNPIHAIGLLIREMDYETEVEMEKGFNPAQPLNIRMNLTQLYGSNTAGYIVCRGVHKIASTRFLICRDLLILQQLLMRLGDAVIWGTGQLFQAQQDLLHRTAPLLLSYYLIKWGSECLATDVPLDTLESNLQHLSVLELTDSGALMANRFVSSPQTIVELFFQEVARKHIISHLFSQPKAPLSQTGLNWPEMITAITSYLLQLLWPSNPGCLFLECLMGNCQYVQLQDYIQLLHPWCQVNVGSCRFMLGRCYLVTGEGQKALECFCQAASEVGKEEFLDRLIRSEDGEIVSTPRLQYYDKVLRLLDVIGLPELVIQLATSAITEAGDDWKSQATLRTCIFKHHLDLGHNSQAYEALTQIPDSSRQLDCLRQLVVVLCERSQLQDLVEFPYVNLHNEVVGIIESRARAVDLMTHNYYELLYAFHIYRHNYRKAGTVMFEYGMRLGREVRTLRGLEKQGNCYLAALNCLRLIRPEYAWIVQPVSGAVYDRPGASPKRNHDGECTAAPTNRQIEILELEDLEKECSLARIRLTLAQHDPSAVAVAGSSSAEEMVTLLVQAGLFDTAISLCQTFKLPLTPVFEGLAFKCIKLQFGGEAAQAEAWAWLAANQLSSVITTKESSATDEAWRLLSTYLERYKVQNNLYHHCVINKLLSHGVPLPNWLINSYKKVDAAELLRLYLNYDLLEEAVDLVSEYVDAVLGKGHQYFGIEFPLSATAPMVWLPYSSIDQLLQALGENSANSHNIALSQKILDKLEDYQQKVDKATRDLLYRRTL
# UniProt Q13426: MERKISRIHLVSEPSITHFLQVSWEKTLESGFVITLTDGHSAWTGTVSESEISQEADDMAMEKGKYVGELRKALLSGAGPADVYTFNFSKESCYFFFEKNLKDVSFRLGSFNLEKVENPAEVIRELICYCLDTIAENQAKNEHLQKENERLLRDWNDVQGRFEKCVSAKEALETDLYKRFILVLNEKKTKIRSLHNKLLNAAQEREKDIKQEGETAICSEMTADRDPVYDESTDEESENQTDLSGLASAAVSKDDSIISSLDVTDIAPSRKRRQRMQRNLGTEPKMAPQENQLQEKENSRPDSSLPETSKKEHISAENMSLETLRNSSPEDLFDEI
# UniProt Q14088: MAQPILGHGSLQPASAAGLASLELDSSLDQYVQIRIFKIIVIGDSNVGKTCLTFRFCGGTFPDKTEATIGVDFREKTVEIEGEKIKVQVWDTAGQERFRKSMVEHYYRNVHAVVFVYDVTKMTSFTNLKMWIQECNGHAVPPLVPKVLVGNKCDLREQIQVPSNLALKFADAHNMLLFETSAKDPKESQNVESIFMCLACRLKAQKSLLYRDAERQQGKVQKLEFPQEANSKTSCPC
# UniProt Q01664: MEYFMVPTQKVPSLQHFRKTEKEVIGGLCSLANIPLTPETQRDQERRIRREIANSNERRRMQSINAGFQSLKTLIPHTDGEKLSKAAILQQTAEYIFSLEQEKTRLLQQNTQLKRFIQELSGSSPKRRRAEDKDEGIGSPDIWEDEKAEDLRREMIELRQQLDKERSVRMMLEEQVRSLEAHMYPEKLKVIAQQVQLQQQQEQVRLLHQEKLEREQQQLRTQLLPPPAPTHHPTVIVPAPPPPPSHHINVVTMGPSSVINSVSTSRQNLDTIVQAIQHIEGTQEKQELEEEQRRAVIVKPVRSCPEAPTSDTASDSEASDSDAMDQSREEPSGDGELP
# UniProt Q00765: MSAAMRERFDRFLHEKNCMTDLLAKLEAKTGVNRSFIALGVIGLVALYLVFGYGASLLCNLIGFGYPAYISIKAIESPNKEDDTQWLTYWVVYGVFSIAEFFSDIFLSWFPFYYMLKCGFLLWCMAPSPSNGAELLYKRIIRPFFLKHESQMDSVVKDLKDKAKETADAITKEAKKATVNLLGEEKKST
# UniProt Q06210: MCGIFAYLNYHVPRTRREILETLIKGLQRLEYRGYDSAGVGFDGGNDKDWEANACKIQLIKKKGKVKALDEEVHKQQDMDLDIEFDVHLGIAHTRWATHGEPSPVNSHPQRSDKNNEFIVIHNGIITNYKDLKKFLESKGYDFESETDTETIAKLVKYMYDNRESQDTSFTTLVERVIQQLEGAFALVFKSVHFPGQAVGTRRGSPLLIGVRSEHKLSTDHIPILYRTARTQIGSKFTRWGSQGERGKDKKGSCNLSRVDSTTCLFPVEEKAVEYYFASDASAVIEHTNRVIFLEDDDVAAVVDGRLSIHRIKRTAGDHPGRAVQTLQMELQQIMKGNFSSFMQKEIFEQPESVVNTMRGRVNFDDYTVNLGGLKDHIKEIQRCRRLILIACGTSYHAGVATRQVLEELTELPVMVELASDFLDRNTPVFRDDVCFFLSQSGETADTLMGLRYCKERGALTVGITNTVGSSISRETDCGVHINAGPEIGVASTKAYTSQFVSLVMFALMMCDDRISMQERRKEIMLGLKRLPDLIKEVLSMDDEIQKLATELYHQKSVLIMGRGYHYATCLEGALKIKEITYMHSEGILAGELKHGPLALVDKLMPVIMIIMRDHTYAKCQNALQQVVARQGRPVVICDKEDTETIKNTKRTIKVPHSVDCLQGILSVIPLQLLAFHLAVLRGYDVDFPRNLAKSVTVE
# UniProt Q04941: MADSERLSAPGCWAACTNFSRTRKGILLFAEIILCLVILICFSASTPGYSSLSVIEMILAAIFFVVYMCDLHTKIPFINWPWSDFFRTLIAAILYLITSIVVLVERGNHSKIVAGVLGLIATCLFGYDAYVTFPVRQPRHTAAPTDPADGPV
# UniProt Q13287: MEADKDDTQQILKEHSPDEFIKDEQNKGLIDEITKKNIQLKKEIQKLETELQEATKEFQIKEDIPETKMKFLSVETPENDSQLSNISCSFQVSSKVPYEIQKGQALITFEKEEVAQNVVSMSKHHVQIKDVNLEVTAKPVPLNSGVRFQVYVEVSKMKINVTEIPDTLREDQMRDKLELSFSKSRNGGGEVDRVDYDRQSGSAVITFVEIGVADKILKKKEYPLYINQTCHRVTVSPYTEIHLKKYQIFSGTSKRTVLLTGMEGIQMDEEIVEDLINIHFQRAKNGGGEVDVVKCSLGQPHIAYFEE
# UniProt Q09028, whole entry: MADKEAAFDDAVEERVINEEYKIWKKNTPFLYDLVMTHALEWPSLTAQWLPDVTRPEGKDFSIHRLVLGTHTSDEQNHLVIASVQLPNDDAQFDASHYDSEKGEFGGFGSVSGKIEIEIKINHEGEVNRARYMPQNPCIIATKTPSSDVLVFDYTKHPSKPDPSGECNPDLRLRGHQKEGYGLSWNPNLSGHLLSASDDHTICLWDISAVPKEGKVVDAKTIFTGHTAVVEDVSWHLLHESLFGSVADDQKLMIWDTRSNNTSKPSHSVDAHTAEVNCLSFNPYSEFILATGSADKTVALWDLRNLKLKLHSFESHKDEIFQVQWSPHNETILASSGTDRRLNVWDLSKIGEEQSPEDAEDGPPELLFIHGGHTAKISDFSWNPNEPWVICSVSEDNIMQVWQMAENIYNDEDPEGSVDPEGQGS
# UniProt Q08881: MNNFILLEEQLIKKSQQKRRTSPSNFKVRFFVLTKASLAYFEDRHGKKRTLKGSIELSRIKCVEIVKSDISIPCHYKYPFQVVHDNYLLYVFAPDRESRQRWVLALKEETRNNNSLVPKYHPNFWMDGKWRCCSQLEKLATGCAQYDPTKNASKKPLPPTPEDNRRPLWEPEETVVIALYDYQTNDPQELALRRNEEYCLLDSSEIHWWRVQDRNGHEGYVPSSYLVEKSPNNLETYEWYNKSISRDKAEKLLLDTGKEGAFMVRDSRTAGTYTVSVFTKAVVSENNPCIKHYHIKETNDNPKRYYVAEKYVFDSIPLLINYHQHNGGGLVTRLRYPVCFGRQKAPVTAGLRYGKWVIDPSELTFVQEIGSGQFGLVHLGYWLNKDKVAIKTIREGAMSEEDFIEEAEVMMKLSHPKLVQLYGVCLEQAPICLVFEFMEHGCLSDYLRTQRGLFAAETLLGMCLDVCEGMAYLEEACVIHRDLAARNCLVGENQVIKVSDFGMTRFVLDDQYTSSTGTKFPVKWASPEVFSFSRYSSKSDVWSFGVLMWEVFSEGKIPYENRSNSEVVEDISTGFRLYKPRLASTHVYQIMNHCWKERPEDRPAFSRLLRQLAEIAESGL
# ± gives the standard deviation of the averaged measurements. This is a selection; strong and weak results do not stand in their true shares.
# Compound: Nc1ncnc2c1ncn2[C@@H]1O[C@H](COP(=O)(O)OP(=O)(O)OP(=O)(O)O)[C@@H](O)[C@H]1O [adenosine triphosphate]
# Assay: NP40-soluble protein abundance relative to vehicle (solubility fold change) (ratio); higher = more soluble protein in presence of ATP
# Summary of the method: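 Data come from three independent experiments in which Dounce-homogenised Jurkat crude lysate was treated at eight concentrations from 0.1 to 10 mM. Treatment ran 10 min at room temperature and then 3 min at 37 °C, after which 0.8% NP40 and benzonase were added for 60 min at 4 °C before ultracentrifugation. The supernatant underwent TMT labelling and LC-MS/MS, and vsn-normalised intensities were expressed as fold change against the detergent-processed vehicle in each replicate.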
Target,NP40-soluble protein abundance (concentration: 1mM),NP40-soluble protein abundance (concentration: 2mM),NP40-soluble protein abundance (concentration: 4mM),NP40-soluble protein abundance (concentration: 6mM),NP40-soluble protein abundance (concentration: 8mM),NP40-soluble protein abundance (concentration: 10mM)
MBTD1 (UniProt Q05BQ5),1.05 ± 0.031,1 ± 0.026,1.08 ± 0.058,1.03 ± 0.042,1.09 ± 0.085,1.08 ± 0.03
UniProt Q05932 and related entries,1.09 ± 0.062,1.04 ± 0.046,1.02 ± 0.11,1.01 ± 0.092,1.08 ± 0.082,1.02 ± 0.081
SLC39A6 (UniProt Q13433),0.945 ± 0.1,0.941 ± 0.049,0.957 ± 0.029,0.939 ± 0.054,0.88 ± 0.053,0.883 ± 0.026
ERCC8 (UniProt Q13216),0.974 ± 0.1,0.95 ± 0.076,1.01 ± 0.067,0.948 ± 0.067,0.906 ± 0.056,0.968 ± 0.058
UniProt Q12769 and related entries,1.08 ± 0.11,1.07 ± 0.09,1.1 ± 0.046,1 ± 0.11,1.16 ± 0.041,1.12 ± 0.035
IK (UniProt Q13123),1.04 ± 0.052,1.07 ± 0.046,1.11 ± 0.028,1.27 ± 0.078,1.27 ± 0.027,1.37 ± 0.045
EIF2B5 (UniProt Q13144),1.04 ± 0.063,1.01 ± 0.015,1.08 ± 0.18,1.05 ± 0.13,1.11 ± 0.11,1.05 ± 0.037
SNW1 (UniProt Q13573),0.932 ± 0.048,0.954 ± 0.032,0.953 ± 0.02,1.03 ± 0.044,0.986 ± 0.021,1.021 ± 0.0082
CPSF1 (UniProt Q10570),1.14 ± 0.14,1.23 ± 0.085,1.31 ± 0.13,1.25 ± 0.084,1.37 ± 0.07,1.37 ± 0.05
UniProt Q13472 and related entries,0.988 ± 0.017,0.981 ± 0.039,1.01 ± 0.026,1.006 ± 0.0087,1.04 ± 0.018,1.03 ± 0.035
HNRNPA0 (UniProt Q13151),1.05 ± 0.077,1 ± 0.038,0.977 ± 0.051,1.09 ± 0.035,1.01 ± 0.025,1.03 ± 0.027
XRCC4 (UniProt Q13426),1.15 ± 0.19,1.02 ± 0.076,1.06 ± 0.093,1.13 ± 0.1,1.1 ± 0.071,1.13 ± 0.08
CDC20 (UniProt Q12834),1.04 ± 0.066,1.1 ± 0.13,1.1 ± 0.11,1.05 ± 0.072,1.12 ± 0.044,1.09 ± 0.076
RAB33A (UniProt Q14088),1.1 ± 0.11,1.06 ± 0.13,1.04 ± 0.086,1.1 ± 0.2,1.04 ± 0.19,1.08 ± 0.092
TFAP4 (UniProt Q01664),1.01 ± 0.079,0.966 ± 0.074,0.931 ± 0.049,0.937 ± 0.059,0.927 ± 0.066,0.84 ± 0.091
REEP5 (UniProt Q00765),0.865 ± 0.08,0.9 ± 0.035,0.896 ± 0.055,0.948 ± 0.092,0.873 ± 0.072,0.86 ± 0.028
UniProt Q14004 and related entries,1.23 ± 0.048,1.25 ± 0.044,1.23 ± 0.047,1.27 ± 0.029,1.25 ± 0.062,1.26 ± 0.034
UniProt Q06210 and related entries,1.02 ± 0.095,0.983 ± 0.069,0.963 ± 0.054,0.874 ± 0.11,0.986 ± 0.033,0.972 ± 0.06
NOTCH2 (UniProt Q04721),1.1 ± 0.25,1.05 ± 0.013,1.02 ± 0.092,1.08 ± 0.022,0.985 ± 0.067,0.963 ± 0.14
G3BP1 (UniProt Q13283),1.09 ± 0.029,1.08 ± 0.017,1.13 ± 0.018,1.17 ± 0.016,1.15 ± 0.015,1.17 ± 0.026
PLP2 (UniProt Q04941),0.935 ± 0.1,0.923 ± 0.083,0.967 ± 0.13,0.95 ± 0.062,0.913 ± 0.072,0.873 ± 0.01
UniProt Q05655,1.02 ± 0.084,1 ± 0.075,1.01 ± 0.046,0.967 ± 0.1,1.01 ± 0.076,0.977 ± 0.047
UniProt Q13561 and related entries,0.966 ± 0.058,0.934 ± 0.048,0.927 ± 0.06,0.968 ± 0.15,0.938 ± 0.068,0.873 ± 0.045
UniProt Q0VG06 and related entries,0.936 ± 0.064,1 ± 0.039,1.05 ± 0.073,0.984 ± 0.062,1.07 ± 0.073,1.01 ± 0.012
NMI (UniProt Q13287),0.961 ± 0.03,0.984 ± 0.019,0.949 ± 0.018,0.981 ± 0.021,0.952 ± 0.014,0.979 ± 0.043
GALNT2 (UniProt Q10471),1.02 ± 0.044,1 ± 0.059,0.975 ± 0.022,0.978 ± 0.059,0.988 ± 0.025,0.973 ± 0.036
UniProt Q13557-12|D6R938 and related entries,1.05 ± 0.15,1.05 ± 0.086,1.1 ± 0.13,1.1 ± 0.061,1.14 ± 0.088,1.05 ± 0.11
UniProt Q09028-2|Q09028-3|Q09028,1.06 ± 0.084,0.997 ± 0.027,0.973 ± 0.027,1.02 ± 0.025,1 ± 0.023,0.986 ± 0.03
ITK (UniProt Q08881),1.06 ± 0.15,0.993 ± 0.076,0.971 ± 0.074,0.897 ± 0.065,0.991 ± 0.011,0.972 ± 0.051
UniProt Q07002 and related entries,1.3 ± 0.058,1.28 ± 0.04,1.234 ± 0.0058,1.28 ± 0.03,1.26 ± 0.043,1.275 ± 0.0099

# Single values from the list:
# Value for CPSF1 (UniProt Q10570) under NP40-soluble protein abundance (concentration: 6mM): 1.25 ± 0.084
# Value for NMI (UniProt Q13287) under NP40-soluble protein abundance (concentration: 8mM): 0.952 ± 0.014
